Data on 67 compounds can be found in PubChem BioAssay AID662 (National Center for Advancing Translational Sciences (NCATS), 2007).

“And” between values parts separate entries of the source, which are not always exact repeats. Equal values may be shown once. The list shows a part of the results. The main result of the screen is listed elsewhere. These columns were measured beside it and carry no call. Most of these compounds were active or inconclusive in the main read-out, so they are no random draw. The note in brackets gives the kind of curve behind each potency; many fits are weak.

The nature of the assay: Cell signaling CRE-BLA (Fsk stim). The note with it: CHO CRE-bla reporter (cAMP response element driving beta-lactamase), forskolin EC10, beta-lactamase ratio; measured here: 460 nm blue channel. The gist of the method: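 Modulation of forskolin-driven signalling is measured in CHO cells carrying a CRE-controlled beta-lactamase reporter. Cells are stimulated with EC10 NKH 477 in the presence of titrated compound for 3 h at 37 °C, then loaded with CCF4 for 2 h at room temperature.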
By AC50 is commonly meant the midpoint of the concentration-response curve, whichever way the signal moves. Regarding `NC(=O)c1oc2ccccc2c1NC(=O)CN1CCCCC1`, the AC50 was 3.98 µM [falling, full curve, poor fit].

In the case of `C=CCN=C(NC#N)SCC(=O)NC(C)(C)C`, the half-maximal activity concentration (AC50) was 7.94 µM [falling, partial curve, poor fit].

For `COc1ccc(CCNc2oc(COc3ccccc3F)nc2C#N)cc1`, the AC50 is 25.1 µM [falling, single point].

For the compound `Cc1cc(C(=O)Nc2sc3c(c2C#N)CCC(C)C3)no1` (configuration not stated), the AC50 was 25.1 µM [rising, single point].

For the compound `O=C(c1ccc(Cl)s1)N1CCN(c2ccccc2)CC1`, the AC50 is 12.6 µM [rising, partial curve].

In the case of `Oc1c(C(c2ccco2)N2CCN(C(c3ccccc3)c3ccccc3)CC2)sc2ncnn12` (configuration not stated), the AC50 was 12.6 µM [rising, partial curve].

Regarding `O=C(Nc1cccc(Cl)c1)N(Cc1nc2ccccc2c(=O)[nH]1)C1CCCC1`, the AC50 is 20 µM [rising, single point].

Take `O=C(C1CCCN1S(=O)(=O)c1ccc(Cl)cc1)N1CCOCC1` (configuration not stated): the AC50 is 0.00398 µM [falling, full curve, poor fit].

`COC(=O)/C=C/S(=O)(=O)c1ccc(NC(C)=O)cc1`: the AC50 is 5.01 µM [falling, full curve].

As to `COc1ccc(-c2nn3c(-c4ccccc4)nnc3s2)cc1`, the AC50 is 15.8 µM [rising, single point].

In the case of `Cc1cc(SCC(=O)NC(=O)NCc2ccco2)nc2c(C)cccc12`, the AC50 was 1.26 µM [falling, full curve].

For `O=C1CCCC2=C1C(Cc1ccccc1)C1=C(CCCC1=O)O2`, the AC50 is 31.6 µM [falling, single point].

Consider `CN(C)c1ccc(P(=O)(OCc2ccccc2)C(O)c2cccnc2)cc1` (configuration not stated), for which the AC50 is 25.1 µM [falling, single point].

Take `COc1cccc(-n2c(SCC(=O)Nc3cc(C)on3)nc3ccccc3c2=O)c1`: the AC50 is 7.94 µM [rising, partial curve].

Turning to `CC(C)[C@H](NC(=O)Nc1cccc(C(F)(F)F)c1)C(=O)O`, the concentration at half-maximal activity (AC50) is 12.6 µM [falling, partial curve, poor fit].

With `Cc1ccccc1OCC(=O)NCCC(=O)O`, the AC50 is 0.251 µM [rising, partial curve, poor fit].

As for `Cn1c(C(=O)NCCN2CCN(c3ccccc3F)CC2)cc2c(=O)n(C)c3ccccc3c21`, the AC50 is 2 µM [rising, full curve].

On to `CCCCCCNc1c(C(=O)OCC)c(=O)[nH]c2ccccc12`, for which the AC50 is 5.01 µM [rising, partial curve].

With `Cc1cccc(CNc2cc(-c3c(C)noc3C)ncn2)c1`, the AC50 is 7.94 µM [rising, partial curve].

Turning to `O=C(CSc1ncnc2c1oc1ccccc12)N1CCCc2ccccc21`, the half-maximal activity concentration (AC50) was 10 µM [rising, partial curve, poor fit].

On to `Cn1cc(-c2nc3cnc(N4CCOCC4)nc3n(C3CC3)c2=O)c2ccccc21`, for which the half-maximal activity concentration (AC50) is 15.8 µM [rising, partial curve].

In the case of `CC1CCCC(NC2CCCCNC2=O)C1` (configuration not stated), the AC50 is 0.00316 µM [falling, full curve, poor fit].

In the case of `COc1ncc2nc(-c3ccc(F)cc3)c(=O)n(C[C@H]3CCCO3)c2n1`, the AC50 is 12.6 µM [rising, partial curve].

Take `O=C(Cn1cnnn1)OCC(=O)c1ccc(Cl)s1`: the AC50 is 0.251 µM [falling, partial curve].

`Nc1nc2n(n1)C(c1ccco1)CC(c1ccc(Cl)c(Cl)c1)N2` (configuration not stated): the AC50 was 25.1 µM [falling, single point].

In the case of `CCCc1nnc2n1N=C(c1ccc(OC)c(OC)c1)CS2`, the AC50 is 3.98 µM [rising, partial curve].

As to `CC(C)CCn1c(Sc2nc3ccccc3s2)nc2c1c(=O)[nH]c(=O)n2C`, the AC50 is 10 µM [rising, partial curve].

As for `Cc1ccc(S(=O)(=O)NC(CC(=O)O)c2ccccc2)cc1` (configuration not stated), the half-maximal activity concentration (AC50) was 1 µM [rising, full curve].

Turning to `COc1ccc(Cc2n[nH]c(=O)c3ccccc23)cc1OC`, the AC50 is 12.6 µM [rising, partial curve].

On to `CCc1nc(-c2ccc(-c3ccc(OC)cc3)nc2OC)no1`, for which the half-maximal activity concentration (AC50) was 12.6 µM [rising, partial curve].

With `N#Cc1c(N)nc(SCC(=O)OCc2ccccc2)c(C#N)c1-c1ccco1`, the AC50 was 20 µM [rising, single point].

With `O=C1c2ccccc2C(Nc2ccc(F)c(Cl)c2)N1Cc1ccco1` (configuration not stated), the AC50 was 12.6 µM [falling, single point].

As for `CCOc1ccc2[nH]c(=O)c(CN(Cc3ccco3)Cc3nnnn3Cc3ccccc3)cc2c1`, the AC50 was 25.1 µM [rising, single point].

As for `CCc1nc(N2CCCC2C(=O)O)c2oc3ccccc3c2n1` (configuration not stated), the AC50 is 5.01 µM [falling, partial curve, poor fit].

Take `COc1ccc(Nc2nc(N3CCCCC3)nc(N3CCCCC3)n2)c(OC)c1`: the AC50 is 0.398 µM [rising, partial curve].

Consider `CCN(CC)c1nc(C#N)cc(-c2ccc(OC)cc2)n1`, for which the AC50 was 10 µM [rising, partial curve].

Turning to `CCOC(=O)N1CCN(C(=O)CSc2nc3ccccc3c(=O)n2-c2ccccc2)CC1`, the AC50 was 10 µM [rising, single point].

On to `O=c1c2ccccc2nnn1CSc1nnc(-c2ccc3c(c2)OCO3)o1`, for which the AC50 was 5.01 µM [rising, single point].

In the case of `O=c1cnc2cnc(N3CCOCC3)nc2n1Cc1ccc(F)cc1`, the AC50 was 12.6 µM [rising, partial curve].

`C=CCOc1ccc(/C(O)=C2/C(=O)C(=O)N(CCCn3ccnc3)C2c2cccs2)cc1` (configuration not stated): the AC50 was 1 µM [falling, partial curve, poor fit].

As for `Cc1nc(SCC(=O)NCC2CCCO2)c2oc3ccccc3c2n1` (configuration not stated), the AC50 was 12.6 µM [rising, partial curve].

Turning to `Cc1ccc(S(=O)(=O)N[C@H](CO)C(=O)O)cc1`, the AC50 was 0.398 µM [rising, single point].

As to `CN(C)c1ccc(-c2cc(Nc3ccc(F)cc3)ncn2)cc1`, the half-maximal activity concentration (AC50) is 10 µM [rising, partial curve].

In the case of `Cc1cccn2c(=O)c3cc(C#N)c(=NC(=O)c4cccnc4)n(CC4CCCO4)c3nc12` (configuration not stated), the AC50 is 12.6 µM [rising, partial curve].

`Cn1c(=O)c(-c2ccc(F)c(F)c2)nc2cncnc21`: the half-maximal activity concentration (AC50) was 12.6 µM [rising, partial curve].

Regarding `C[n+]1cc2c3c(ccc2c2ccc4cc5c(cc4c21)OCO5)OCO3`, the AC50 is 3.98 µM [rising, full curve] and 7.94 µM [falling, partial curve].

`CC1CCN(C(=O)CSc2nc(N)c3c4c(sc3n2)CN(C)CC4)CC1`: the AC50 is 5.01 µM [falling, single point].

On to `Cc1ccc(S(=O)(=O)C(C#N)c2nc3ccccc3nc2N2CCCC2)cc1C` (configuration not stated), for which the half-maximal activity concentration (AC50) is 10 µM [rising, partial curve].

On to `COc1ccc(C(=O)CSc2nc3nc(C)cc(C)c3c(=O)[nH]2)cc1OC`, for which the AC50 is 3.16 µM [rising, full curve].

With `COCCNC(=O)CS(=O)Cc1nc(-c2ccc(Cl)cc2)oc1C` (configuration not stated), the concentration at half-maximal activity (AC50) is 12.6 µM [rising, single point].

With `C=CCn1c(SCC(=O)Nc2cc3oc4ccccc4c3cc2OC)nnc1-c1cnccn1`, the AC50 was 5.01 µM [rising, partial curve].

On to `CCC(C)NC(=O)c1cn(C)c(=O)c2cc(OC)c(OC)cc12` (configuration not stated), for which the AC50 was 3.98 µM [rising, partial curve].

With `O=C(Nc1ccn(Cc2ccc(Cl)cc2)n1)c1ccc2c(c1)OCO2`, the AC50 was 0.00316 µM [falling, full curve, poor fit].

`Nc1ccc(-c2n[nH]c(=O)c3ccccc23)cc1N`: the AC50 is 1.58 µM [rising, full curve].

As to `CCOC(=O)c1c(C)[nH]c(C(=O)CN2CC(C)OC(C)C2)c1C` (configuration not stated), the AC50 was 6.31 µM [rising, partial curve].

For `CCCn1c(=N)c(C(=O)NCC2CCCO2)cc2c(=O)n3cccc(C)c3nc21` (configuration not stated), the AC50 was 15.8 µM [rising, partial curve].

As to `COC(=O)c1[nH]c2cccc(OC)c2c1NC(=O)CN1CCC(C(N)=O)(N2CCCCC2)CC1`, the AC50 was 5.01 µM [falling, single point].

With `C[C@@H](C(=O)NCCc1c[nH]c2ccccc12)[C@H]1C[C@]1(C)[C@H](NC(=O)OCc1ccccc1)c1ccccc1`, the AC50 is 5.01 µM [falling, partial curve].

Consider `CCOC(=O)C1=C(C)N(C)C(C)=C(C(=O)OCC)C1c1cccnc1`, for which the AC50 is 12.6 µM [rising, partial curve].

Turning to `O=C(C1CCN(S(=O)(=O)c2cccc3nsnc23)CC1)N1CCn2c1nc1ccccc12`, the AC50 was 0.398 µM [rising, partial curve, poor fit].

On to `N#Cc1cc(Cl)c(N2CCOCC2)cc1C#N`, for which the AC50 is 10 µM [rising, single point].

For the compound `O=c1c(-c2cc(F)cc(F)c2)nc2cnc(Oc3ccccc3)nc2n1C1CC1`, the half-maximal activity concentration (AC50) is 7.94 µM [rising, partial curve].

As for `CCOC(=O)c1[nH]c2ccc(OC)cc2c1NC(=O)N1CCOCC1`, the half-maximal activity concentration (AC50) was 5.01 µM [falling, single point].

As to `Cc1c(C(=O)Nc2ccc(F)cc2)oc2ccc(S(=O)(=O)N3CCCC3)cc12`, the AC50 was 3.98 µM [rising, single point].

With `Cc1ccc2nc(N3CCOCC3)c3nncn3c2c1`, the concentration at half-maximal activity (AC50) was 10 µM [rising, partial curve].

Turning to `Cn1cc(-c2nc3cncnc3n(Cc3ccccc3Cl)c2=O)c2ccccc21`, the AC50 was 2 µM [rising, partial curve].

On to `C=CCOC(=O)COc1ccc2c(C)c(C)c(=O)oc2c1`, for which the AC50 is 25.1 µM [rising, single point].
